Structures can show the parent of a compound that is named as a salt. The list shows a part of the results. Hit calls seldom repeat between salt and free forms of one compound.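 Kinases, fused to nanoluciferase, were expressed in K562 cells; luminescence was measured every 4 h from 2 to 18 h as percent of control (DMSO = 100%, positive control = 0%). A time point is decreased if signal falls significantly (2 sigma). Hits were called by the authors by a rule that is not shown; the count of time points alone does not decide it.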
Legend:
Experiment in all cases: kinase-Nluc reporter destabilization hit call (1 = scored as downregulated) (binary); higher = compound decreases kinase abundance
Conditions in all cases: K562; 2-18 h
[1] = target: EGFR (UniProt P00533)
[2] = target: EGFR_G719S (UniProt P00533)
[3] = target: EGFR_G719S_T790M (UniProt P00533)
[4] = target: EGFR_L718V (UniProt P00533)
[5] = target: EGFR_L858R (UniProt P00533)
[6] = target: EGFR_L861Q (UniProt P00533)
[7] = target: EGFR_T790M (UniProt P00533)
[8] = target: EPHA2 (UniProt P29317)
[9] = target: ERBB3 (UniProt P21860)
[10] = target: ERBB4_R711C (clone: ERBB4_mut) (UniProt Q15303)

The chains behind the UniProt entries cited, without tags or fusion partners.
UniProt P29317, whole entry: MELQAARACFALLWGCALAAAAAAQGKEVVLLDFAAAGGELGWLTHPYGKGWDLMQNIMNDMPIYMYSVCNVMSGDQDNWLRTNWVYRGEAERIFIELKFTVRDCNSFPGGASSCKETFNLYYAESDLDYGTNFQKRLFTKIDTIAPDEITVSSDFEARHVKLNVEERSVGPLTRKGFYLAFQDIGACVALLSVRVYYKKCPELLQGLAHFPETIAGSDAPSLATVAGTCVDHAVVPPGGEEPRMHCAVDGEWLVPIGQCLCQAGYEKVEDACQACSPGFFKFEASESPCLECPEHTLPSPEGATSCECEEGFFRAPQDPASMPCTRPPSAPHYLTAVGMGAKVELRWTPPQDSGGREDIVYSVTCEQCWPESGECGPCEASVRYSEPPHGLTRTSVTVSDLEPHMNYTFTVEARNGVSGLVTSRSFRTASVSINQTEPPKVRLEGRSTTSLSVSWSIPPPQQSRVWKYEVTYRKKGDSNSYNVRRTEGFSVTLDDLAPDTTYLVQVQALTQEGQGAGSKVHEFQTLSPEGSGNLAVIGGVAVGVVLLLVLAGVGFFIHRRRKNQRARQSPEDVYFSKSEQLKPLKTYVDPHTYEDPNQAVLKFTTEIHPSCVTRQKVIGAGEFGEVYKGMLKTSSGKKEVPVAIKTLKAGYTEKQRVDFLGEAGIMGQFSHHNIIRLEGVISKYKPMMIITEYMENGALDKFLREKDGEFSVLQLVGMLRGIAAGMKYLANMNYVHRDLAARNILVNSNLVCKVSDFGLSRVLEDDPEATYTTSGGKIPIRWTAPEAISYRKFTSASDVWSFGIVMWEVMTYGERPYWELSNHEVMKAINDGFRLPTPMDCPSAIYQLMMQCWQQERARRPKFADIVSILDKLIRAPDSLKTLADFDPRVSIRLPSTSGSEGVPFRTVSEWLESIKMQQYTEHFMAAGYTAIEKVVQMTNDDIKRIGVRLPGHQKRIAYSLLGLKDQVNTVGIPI
UniProt P21860, whole entry: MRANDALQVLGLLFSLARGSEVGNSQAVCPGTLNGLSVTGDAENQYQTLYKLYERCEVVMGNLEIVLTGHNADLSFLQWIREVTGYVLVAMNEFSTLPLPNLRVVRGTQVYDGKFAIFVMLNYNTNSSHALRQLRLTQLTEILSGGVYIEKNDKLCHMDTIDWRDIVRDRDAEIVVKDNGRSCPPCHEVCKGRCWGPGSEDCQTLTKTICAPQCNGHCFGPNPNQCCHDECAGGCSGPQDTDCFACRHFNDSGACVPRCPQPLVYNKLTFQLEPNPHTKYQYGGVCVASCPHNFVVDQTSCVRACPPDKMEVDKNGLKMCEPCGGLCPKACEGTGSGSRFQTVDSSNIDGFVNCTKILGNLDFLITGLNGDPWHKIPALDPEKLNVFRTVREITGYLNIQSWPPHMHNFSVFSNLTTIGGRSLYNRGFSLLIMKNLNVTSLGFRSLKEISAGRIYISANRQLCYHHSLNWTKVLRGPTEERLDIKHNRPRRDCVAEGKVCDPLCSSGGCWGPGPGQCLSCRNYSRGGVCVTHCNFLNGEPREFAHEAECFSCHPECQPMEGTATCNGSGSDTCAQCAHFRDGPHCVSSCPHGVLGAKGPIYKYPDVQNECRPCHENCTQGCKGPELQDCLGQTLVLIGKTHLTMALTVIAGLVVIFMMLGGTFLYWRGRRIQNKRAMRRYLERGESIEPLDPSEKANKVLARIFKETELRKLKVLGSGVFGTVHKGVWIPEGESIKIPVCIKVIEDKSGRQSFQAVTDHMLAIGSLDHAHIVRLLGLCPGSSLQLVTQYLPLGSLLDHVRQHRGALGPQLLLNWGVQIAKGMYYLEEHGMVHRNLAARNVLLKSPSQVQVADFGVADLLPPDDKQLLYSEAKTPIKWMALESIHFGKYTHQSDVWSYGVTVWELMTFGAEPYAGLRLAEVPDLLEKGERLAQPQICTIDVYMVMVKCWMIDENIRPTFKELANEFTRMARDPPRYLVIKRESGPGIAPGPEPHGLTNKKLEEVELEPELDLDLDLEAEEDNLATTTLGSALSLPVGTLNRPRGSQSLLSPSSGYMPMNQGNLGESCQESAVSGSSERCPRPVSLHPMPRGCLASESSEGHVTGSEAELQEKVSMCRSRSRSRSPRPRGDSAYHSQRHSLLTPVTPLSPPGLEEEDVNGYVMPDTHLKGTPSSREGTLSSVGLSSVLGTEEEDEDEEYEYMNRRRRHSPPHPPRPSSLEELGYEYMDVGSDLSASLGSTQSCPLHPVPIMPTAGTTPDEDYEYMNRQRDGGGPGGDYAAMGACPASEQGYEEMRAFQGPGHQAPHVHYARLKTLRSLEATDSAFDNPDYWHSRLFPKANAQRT
UniProt Q15303, whole entry R711C: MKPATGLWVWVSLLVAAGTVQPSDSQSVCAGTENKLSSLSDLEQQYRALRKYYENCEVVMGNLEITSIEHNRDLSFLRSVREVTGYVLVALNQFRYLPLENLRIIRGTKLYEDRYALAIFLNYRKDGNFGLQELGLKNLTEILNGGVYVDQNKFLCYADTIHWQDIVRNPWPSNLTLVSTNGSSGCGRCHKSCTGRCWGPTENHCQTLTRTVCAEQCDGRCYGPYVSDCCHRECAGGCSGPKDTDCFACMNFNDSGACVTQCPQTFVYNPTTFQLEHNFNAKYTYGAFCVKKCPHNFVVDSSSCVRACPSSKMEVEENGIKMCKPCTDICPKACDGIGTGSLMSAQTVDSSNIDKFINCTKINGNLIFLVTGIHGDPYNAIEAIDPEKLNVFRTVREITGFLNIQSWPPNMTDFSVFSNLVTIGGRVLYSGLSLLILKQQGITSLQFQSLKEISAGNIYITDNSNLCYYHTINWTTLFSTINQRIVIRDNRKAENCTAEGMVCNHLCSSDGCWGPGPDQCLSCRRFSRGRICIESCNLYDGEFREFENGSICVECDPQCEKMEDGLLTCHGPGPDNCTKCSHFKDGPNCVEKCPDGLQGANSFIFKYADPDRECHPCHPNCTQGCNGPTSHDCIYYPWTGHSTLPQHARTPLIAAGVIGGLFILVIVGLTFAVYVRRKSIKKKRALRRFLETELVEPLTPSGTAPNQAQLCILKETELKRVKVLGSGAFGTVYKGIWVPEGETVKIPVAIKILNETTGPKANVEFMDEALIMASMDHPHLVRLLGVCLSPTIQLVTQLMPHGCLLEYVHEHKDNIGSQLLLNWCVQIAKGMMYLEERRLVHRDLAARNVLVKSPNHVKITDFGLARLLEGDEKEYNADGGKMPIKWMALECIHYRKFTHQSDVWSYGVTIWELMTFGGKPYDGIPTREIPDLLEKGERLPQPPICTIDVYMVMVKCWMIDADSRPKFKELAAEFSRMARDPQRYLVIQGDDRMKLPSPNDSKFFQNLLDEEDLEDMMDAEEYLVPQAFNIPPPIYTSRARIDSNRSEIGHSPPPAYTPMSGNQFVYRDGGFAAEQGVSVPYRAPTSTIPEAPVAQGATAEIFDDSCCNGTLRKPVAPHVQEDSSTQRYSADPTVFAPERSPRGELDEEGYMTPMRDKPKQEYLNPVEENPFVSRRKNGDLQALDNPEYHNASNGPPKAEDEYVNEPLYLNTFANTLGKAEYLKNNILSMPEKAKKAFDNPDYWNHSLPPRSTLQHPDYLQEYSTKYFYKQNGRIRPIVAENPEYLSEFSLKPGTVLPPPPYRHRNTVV

Measured: kinase-Nluc reporter destabilization hit call

NC(=O)c1cnc(-c2ccc(C3(N)CCC3)cc2)c(-c2ccccc2)c1 (10 µM)
inactive: [1] 0 | [2] 0 | [3] 0 | [4] 0 | [5] 0 | [6] 0 | [7] 0 | [8] 0 | [9] 0 | [10] 0

Cc1cc(-n2c(=O)ccc3c[nH]c4nccc-4c32)ccc1F (10 µM)
inactive: [1] 0 | [2] 0 | [3] 0 | [4] 0 | [5] 0 | [6] 0 | [7] 0 | [8] 0 | [9] 0 | [10] 0

Cc1cc(C(=O)NC(C)(C)C)cc(C#Cc2ccc3c4c(oc3c2)C(C)(C)c2cc(NS(C)(=O)=O)ccc2C4=O)n1 (10 µM)
inactive: [1] 0 | [2] 0 | [3] 0 | [4] 0 | [5] 0 | [6] 0 | [7] 0 | [8] 0 | [9] 0 | [10] 0

O=C1CC[C@H](NC(=O)Cc2ccccc2)C(=O)N1 [Antineoplaston A10] (10 µM)
inactive: [1] 0 | [2] 0 | [3] 0 | [4] 0 | [5] 0 | [6] 0 | [7] 0 | [8] 0 | [9] 0 | [10] 0

CCNC(=O)C#Cc1ccc2c(C(=Nc3ccc(CN(C)C)cc3)c3ccccc3)c(O)[nH]c2c1 (2.5 µM)
inactive: [1] 0 | [2] 0 | [3] 0 | [4] 0 | [5] 0 | [6] 0 | [7] 0 | [8] 0 | [9] 0 | [10] 0

Cc1ccc(C(=O)NC2CC2)cc1-n1ncc(C(=O)c2cccc(C#N)c2)c1N [Acumapimod] (10 µM)
inactive: [1] 0 | [2] 0 | [3] 0 | [4] 0 | [5] 0 | [6] 0 | [7] 0 | [8] 0 | [9] 0 | [10] 0

c1nc2c(NC3CCCCC3)nc(Nc3ccc(N4CCOCC4)cc3)nc2[nH]1 [Reversine] (10 µM)
inactive: [1] 0 | [2] 0 | [3] 0 | [4] 0 | [5] 0 | [6] 0 | [7] 0 | [8] 0 | [9] 0 | [10] 0

Cc1cnc(NC(=O)c2cc(Oc3cnc(C(=O)N(C)C)nc3)c3cc(C)oc3c2)cn1 (10 µM)
inactive: [1] 0 | [2] 0 | [3] 0 | [4] 0 | [5] 0 | [6] 0 | [7] 0 | [8] 0 | [9] 0 | [10] 0

COCCOCCc1c(C)c2cc(OC)c(O)c(C=O)c2oc1=O (10 µM)
inactive: [1] 0 | [2] 0 | [3] 0 | [4] 0 | [5] 0 | [6] 0 | [7] 0 | [8] 0 | [9] 0 | [10] 0

COc1cc2nccc(Oc3ccc(NC(=O)c4cn(C(C)C)c(=O)n(-c5ccc(F)cc5)c4=O)cc3F)c2cc1OC (0.5 µM)
inactive: [1] 0 | [2] 0 | [3] 0 | [4] 0 | [5] 0 | [6] 0 | [7] 0 | [8] 0 | [9] 0 | [10] 0

C=CC(=O)Nc1cccc(Oc2nc(Nc3ccc(N4CCN(C)CC4)c(F)c3)nc3[nH]ccc23)c1 [Avitinib (maleate)] (2.5 µM)
inactive: [1] 0 | [2] 0 | [3] 0 | [4] 0 | [5] 0 | [6] 0 | [7] 0 | [8] 0 | [9] 0 | [10] 0

Nc1nccc(-c2c(-c3ccc(F)cc3)ncn2C2CCCCC2)n1 (10 µM)
inactive: [1] 0 | [2] 0 | [3] 0 | [4] 0 | [5] 0 | [6] 0 | [7] 0 | [8] 0 | [9] 0 | [10] 0

CCN(CC)CCOc1ccc(Nc2nc(-c3ccccc3NC(=O)CCN3CCN(C)CC3)nc3ccccc23)cc1 (2.5 µM)
inactive: [1] 0 | [2] 0 | [3] 0 | [4] 0 | [5] 0 | [6] 0 | [7] 0 | [8] 0 | [9] 0 | [10] 0

O=C(Nc1ccc(Cl)cc1)C1CCCN(C(=O)c2cc(C(F)(F)F)cc(C(F)(F)F)c2)C1 (stereo not given) (10 µM)
inactive: [1] 0 | [2] 0 | [3] 0 | [4] 0 | [5] 0 | [6] 0 | [7] 0 | [8] 0 | [9] 0 | [10] 0

CCCn1/c(=N/C(=O)c2cccc(C(N)=O)c2)[nH]c2ccccc21 [Takinib] (10 µM)
inactive: [1] 0 | [2] 0 | [3] 0 | [4] 0 | [5] 0 | [6] 0 | [7] 0 | [8] 0 | [9] 0 | [10] 0

NS(=O)(=O)c1ccc(Nc2nc(-c3cccc(-c4ccccc4)c3)c3[nH]cnc3n2)cc1 (10 µM)
inactive: [1] 0 | [2] 0 | [3] 0 | [4] 0 | [5] 0 | [6] 0 | [7] 0 | [8] 0 | [9] 0 | [10] 0

CC(C)=CCC/C(C)=C/CC/C(C)=C/C=C/C(C)=C/C(=O)O [Peretinoin] (10 µM)
inactive: [1] 0 | [2] 0 | [3] 0 | [4] 0 | [5] 0 | [6] 0 | [7] 0 | [8] 0 | [9] 0 | [10] 0

C[C@@H](Nc1ncnc2[nH]c(-c3ccc(O)cc3)cc12)c1ccccc1 (2.5 µM)
inactive: [1] 0 | [2] 0 | [3] 0 | [4] 0 | [5] 0 | [6] 0 | [7] 0 | [8] 0 | [9] 0 | [10] 0

CN1CCC(CNc2ccc3ncc(-c4cccc(OC(F)(F)F)c4)n3n2)CC1 (2.5 µM)
inactive: [1] 0 | [2] 0 | [3] 0 | [4] 0 | [5] 0 | [6] 0 | [7] 0 | [8] 0 | [9] 0 | [10] 0

COc1cc2cc(Oc3ccc4ccc(=O)oc4c3)c(=O)oc2cc1O [Daphnoretin] (10 µM)
inactive: [1] 0 | [2] 0 | [3] 0 | [4] 0 | [5] 0 | [6] 0 | [7] 0 | [8] 0 | [9] 0 | [10] 0

COc1cc2ncnc(Oc3ccc(CC(=O)Nc4cnn(C(C)C)c4)cc3)c2cc1OC (10 µM)
inactive: [1] 0 | [2] 0 | [3] 0 | [4] 0 | [5] 0 | [6] 0 | [7] 0 | [8] 0 | [9] 0 | [10] 0

COc1cc(-c2cc(OP(=O)(O)O)cc(-c3cc(OC)c(OC)c(OC)c3)c2)cc(OC)c1OC [Stafia-1] (10 µM)
inactive: [1] 0 | [2] 0 | [3] 0 | [4] 0 | [5] 0 | [6] 0 | [7] 0 | [8] 0 | [9] 0 | [10] 0

Cc1cc(C(=O)NOCCO)c(Nc2ccc(I)cc2F)n(C)c1=O (10 µM)
inactive: [1] 0 | [2] 0 | [3] 0 | [4] 0 | [5] 0 | [6] 0 | [7] 0 | [8] 0 | [9] 0 | [10] 0

COC(=O)[C@H](CCSC)NC(=O)c1ccc(NC[C@@H](N)CS)cc1-c1ccccc1 [FTI-277 (hydrochloride)] (10 µM)
inactive: [1] 0 | [2] 0 | [3] 0 | [4] 0 | [5] 0 | [6] 0 | [7] 0 | [8] 0 | [9] 0 | [10] 0

CCc1c[nH]c2ncnc(N3CC[C@](N)(CNC(=O)c4ccc(F)cc4F)C3)c12 (10 µM)
inactive: [1] 0 | [2] 0 | [3] 0 | [4] 0 | [5] 0 | [6] 0 | [7] 0 | [8] 0 | [9] 0 | [10] 0

Cc1cccc(-c2[nH]ncc2-c2ccnc3ccccc23)n1 (10 µM)
inactive: [1] 0 | [2] 0 | [3] 0 | [4] 0 | [5] 0 | [6] 0 | [7] 0 | [8] 0 | [9] 0 | [10] 0

C=CC(=O)Nc1cc(Nc2nccc(-c3cn(C)c4ccccc34)n2)c(OC)cc1OCCN(C)C [Rezivertinib] (2.5 µM)
inactive: [1] 0 | [2] 0 | [3] 0 | [4] 0 | [5] 0 | [6] 0 | [7] 0 | [8] 0 | [9] 0 | [10] 0

No new results follow: 2 of the compounds above.
COc1cc2nccc(Oc3ccc(NC(=O)c4cn(C(C)C)c(=O)n(-c5ccc(F)cc5)c4=O)cc3F)c2cc1OC (0.5 µM)
inactive: [1] 0 | [2] 0 | [3] 0 | [4] 0 | [5] 0 | [6] 0 | [7] 0 | [8] 0 | [9] 0 | [10] 0

C=CC(=O)Nc1cccc(Oc2nc(Nc3ccc(N4CCN(C)CC4)c(F)c3)nc3[nH]ccc23)c1 [Avitinib (maleate)] (2.5 µM)
inactive: [1] 0 | [2] 0 | [3] 0 | [4] 0 | [5] 0 | [6] 0 | [7] 0 | [8] 0 | [9] 0 | [10] 0
